Measured values: PubChem BioAssay AID504444 (National Center for Advancing Translational Sciences (NCATS), 2011)
The whole screen tested about 360,000 compounds, of which about 7,500 (2.1%) were called active. The inconclusive results got no clear call from the source; some entries with a clear call stand among them for comparison. Calls come from the whole dose curve; as a rule, active = well fitted inhibition curve with a large enough effect; inconclusive = small, poorly fitted or top-dose-only effect, or effect the other way; inactive = flat fitted curve, though single readings scatter. Where the call is inconclusive, the potency comes from a doubtful curve fit. A structure can be active in one record and inactive in another.

Experiment: Nrf2 qHTS screen for inhibitors; note: nearly all actives have a fitted effect of over 60% in size
Details: A549 ARE-Fluc reporter, luciferase luminescence, 18-24 h; series mostly up to 46 µM
How it was run: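 Two sequential reads on A549 ARE_Fluc cells exposed to compound for 18-24 h: a CellTiter-Fluor fluorescence read for viability, then a luciferase luminescence read for Nrf2/ARE activity.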
Potency is the fitted concentration of half-maximal effect.

| Structure (SMILES) | Potency |
| --- | --- |
| Cc1cc(S(=O)(=O)NCCC2=CCCCC2)ccc1Br | inconclusive: 23.1 µM [falling, single point] |
| O=C(CN1C(=O)/C(=C/c2ccccc2)SC1=S)N1CCN(CCc2ccccn2)CC1 | inconclusive: 29.1 µM [activator, single point] |
| O=S(=O)(c1cc(Cl)ccc1Cl)N1CCN(Cc2ccco2)CC1 | inconclusive: 18.4 µM [falling, partial curve] |
| O=C(COc1ccc(Cl)cc1Cl)NNC(=S)NC(=O)c1ccco1 | inconclusive: 25.9 µM [falling, single point] |
| Cc1ccc(NC(=O)Cn2c(=O)oc3cc(S(=O)(=O)NCc4ccccc4)ccc32)cc1 | inactive |
| CCCCc1ccc(Nc2nc(CCC)cc(=O)[nH]2)cc1 | inconclusive: 29.1 µM [falling, single point] |
| COc1ccc(CNC(=O)Cn2ncn3c(cc4ccccc43)c2=O)cc1 | inconclusive: 29.1 µM [falling, single point] |
| O=C1C2C(c3ccccc3)CC=CC2C(c2ccc3ccccc3c2)N1Cc1ccccc1 (stereo not drawn) | inconclusive: 18.4 µM [falling, single point] |
| CCC[N+]1(CC#CCC(c2ccccc2)c2ccccc2)CCCCC1 | inconclusive: 11.6 µM [falling, partial curve, poor fit] |
| Cc1cccc(CN2CCc3c([nH]c4ccccc34)C2)c1 | inconclusive: 29.1 µM [activator, single point] |
| Cc1ccc(-c2cc(C(F)(F)F)c(C#N)c(SCC(=O)Nc3ccccc3)n2)cc1 | inactive |
| CCOc1cc(CNCc2ccccn2)ccc1OCC(=O)NC(C)(C)C | inconclusive: 20.6 µM [falling, single point] |
| c1ccc(NCCc2ccccn2)cc1 | inconclusive: 16.4 µM [activator, single point] |
| Fc1cccc(CSc2nc3ccncc3[nH]2)c1 | inconclusive: 14.6 µM [activator, partial curve, poor fit] |
| CCCCCC(=O)Nc1cccc(C2=NOC3(C2)C[C@H](C(N)=O)N(C(=O)COc2ccc(Cl)cc2)C3)c1 (stereo partly drawn) | inconclusive: 29.1 µM [falling, single point] |
| Cc1ccc(S(=O)(=O)C2(S(=O)(=O)c3ccc(C)cc3)CC2)cc1 | active: 23.1 µM |
| CCOC(=O)C(C)NC(=O)c1c(C)oc2ncn(CC(C)C)c(=O)c12 (stereo not drawn) | inactive |
| CCOc1ncccc1C(=O)N1CCN(c2ccc(C(F)(F)F)cn2)CC1 | inconclusive: 20.6 µM [falling, single point] |
| CCOC(=O)C1CCN(C(=O)c2ccc3c(=O)n4nc(Nc5cc(C)ccc5C)sc4nc3c2)CC1 | inactive |
| Cc1ccc(CNC(=O)c2cc3c(=O)n(Cc4cccnc4)ccc3nc2C)cc1 | inactive |
| Cc1ccc(N(CC(O)CON=C2c3ccccc3-c3ccccc32)S(C)(=O)=O)cc1 (stereo not drawn) | inconclusive: 20.6 µM [falling, partial curve, poor fit] |
| COC(=O)c1ccccc1NC(=O)CSc1nnc(-c2cccnc2)o1 | inconclusive: 5.17 µM [activator, full curve] |

3 structures from above, arranged by formula weight, rising:

| Structure (SMILES) | Potency |
| --- | --- |
| CCOC(=O)C(C)NC(=O)c1c(C)oc2ncn(CC(C)C)c(=O)c12 (stereo not drawn) | inactive |
| CCOc1cc(CNCc2ccccn2)ccc1OCC(=O)NC(C)(C)C | inconclusive: 20.6 µM [falling, single point] |
| CCCCCC(=O)Nc1cccc(C2=NOC3(C2)C[C@H](C(N)=O)N(C(=O)COc2ccc(Cl)cc2)C3)c1 (stereo partly drawn) | inconclusive: 29.1 µM [falling, single point] |

(continued)

| Structure (SMILES) | Potency |
| --- | --- |
| CC1CCN(C(=O)c2ccc(-c3ccccc3Cl)o2)CC1 | inconclusive: 2.91 µM [activator, partial curve] |
| COc1ccc(OC)c(CCNC(=O)c2csc3c2CCCCC3)c1 | inconclusive: 14.6 µM [activator, partial curve] |
| Cc1nn(Cc2c(F)c(F)c(F)c(F)c2F)c(C)c1NC(=O)c1ccc(COc2ccccc2Cl)o1 | inconclusive: 18.4 µM [falling, single point] |
| Cc1c(C)c2ccc(OCC(=O)Nc3cccnc3)cc2oc1=O | inconclusive: 11.6 µM [falling, partial curve, poor fit] |
| COc1ccc(CNC(=O)CCSc2ccc(F)cc2)cc1OC | inactive |
| CCCCNc1nc2ccccc2nc1NS(=O)(=O)c1cccs1 | inconclusive: 8.2 µM [falling, partial curve, poor fit] |
| COc1nc(C#N)nc(N2CCCCC2)n1 | inactive |
| O=C(N/N=C/c1ccc(O)cc1)c1cc(-c2ccccc2)nc2ccccc12 | inconclusive: 29.1 µM [activator, single point] |
| NC(=O)C1CCN(C(=O)CN(C2CCCCC2)S(=O)(=O)c2ccc(F)cc2)CC1 | inactive |
| CCOC(=O)N1CCN(S(=O)(=O)c2cc(OCC(=O)NC3CCCCC3)c(C)cc2Cl)CC1 | inconclusive: 18.4 µM [activator, single point] |
| CCOC(=O)N1CCN(C(=O)CN(Cc2ccccc2)S(=O)(=O)c2ccc(OC)c(Cl)c2)CC1 | inconclusive: 11.6 µM [falling, partial curve, poor fit] |
| Cc1ccc(N(O)C(=O)NCCCCNC(=O)N(O)c2ccc(C)cc2)cc1 | inconclusive: 25.9 µM [activator, single point] |
| O=C(CCC1N=C2c3ccccc3N=C(SCC(=O)NCC3CCCO3)N2C1=O)NCc1ccc(F)cc1 (stereo not drawn) | inactive |
| C/C(=N\NC(=S)Nc1c(C)cccc1C)c1cc2ccccc2o1 | inconclusive: 10.3 µM [falling, partial curve, poor fit] |
| CC(Cc1ccccc1)=NNc1ccc([N+](=O)[O-])cc1[N+](=O)[O-] | active: 23.1 µM |
| CN(C)CCCNc1nc(N)c([N+](=O)[O-])c(NCc2ccccc2)n1 | inconclusive: 23.1 µM [falling, partial curve] |
| CCCOC(=O)CSC1=C(C#N)C(c2ccccc2OCC)C(C#N)C(=O)N1 (stereo not drawn) | inactive |
| Cc1ccccc1OC(=O)CSc1nnc(-c2ccc(F)cc2)o1 | inconclusive: 11.6 µM [activator, partial curve, poor fit] |
| CC(C)C(O)C1CCN(Cc2nc(-c3cccs3)no2)CC1 (stereo not drawn) | inconclusive: 2.06 µM [activator, full curve] |
| CS(=O)(=O)c1ccc(CNC(=O)C2(C(F)(F)F)C/C(=C\Cc3ccccc3)CCCO2)cc1 (stereo not drawn) | active: 18.4 µM |
| O=C(O)CSc1cc(NS(=O)(=O)c2ccc(Br)cc2)c2ccccc2c1O | active: 2.31 µM |
